According to PubChem BioAssay AID540276 (National Center for Advancing Translational Sciences (NCATS), 2011):
Hit rate of the full screen: of about 300,000 compounds, about 5,400 (1.8%) were called active. Inconclusive results, whose numbers are uncertain, are shown with a selection of clear calls. Calls come from the whole dose curve; tested in HEK293 cells. Potencies beside an inconclusive call are fits to weak or partial responses and may not hold up.

Assay: qHTS for inhibitors of binding or entry into cells for Marburg Virus
Conditions: Marburg virus pseudotyped entry inhibition, cell reporter; series mostly up to 37.8 µM
Potency is the fitted concentration of half-maximal effect.

Q: For `COc1ccccc1CNC(=O)c1cc2c(s1)-c1ccccc1OC2`, which Potency is on record?
A: The Potency was inconclusive: 11.2 µM [activator, partial curve, poor fit].

Q: With `COc1cccc(CN2CCN(Cc3cccc4c3OCO4)CC2CCO)c1` (stereo unspecified) as the compound, how does the Potency read?
A: Its Potency is “inactive”.

Q: For `CCCn1c(=O)n(C)c(=O)c2c(SCC(=O)NCc3ccco3)nc(C3CC3)nc21`, which Potency is on record?
A: Its Potency is inconclusive: 35.5 µM [inhibitor, partial curve].

Q: For `O=c1nc(-c2ccccc2)c2cc(SC(F)F)ccc2[nH]1`, which Potency is on record?
A: Its Potency is “inactive”.

Q: Which Potency does the source give for `O=C(O)COc1nsnc1N1CCOCC1` here?
A: The Potency was inconclusive: 31.6 µM [activator, single point].

Q: Which Potency does the source give for `O=C(CN1CCN(c2ccccc2O)CC1)Nc1ccc2c(c1)CCC2` here?
A: The Potency was inconclusive: 10 µM [inhibitor, partial curve, poor fit].

Q: For `COc1ccc(CCN2C(=O)c3[nH]nc(-c4ccccc4O)c3C2c2ccccc2)cc1OC` (stereo unspecified), which Potency is on record?
A: The Potency was inconclusive: 17.8 µM [inhibitor, partial curve, poor fit].

Q: With `CCCCN(C)CCCNC(=O)Cn1ncc2c3ccccc3n(Cc3cc(C)ccc3C)c2c1=O` as the compound, how does the Potency read?
A: Its Potency is inconclusive: 17.8 µM [inhibitor, single point].

Q: With `CNc1ccc(C=C2C=Cc3ccccc32)cc1` as the compound, how does the Potency read?
A: Its Potency is inconclusive: 8.91 µM [inhibitor, partial curve, poor fit].

Q: Which Potency does the source give for `CCOC(=O)N1CCN(C(=O)c2oc3ccc(S(=O)(=O)N4CC(C)CC(C)C4)cc3c2C)CC1` (stereo unspecified) here?
A: The Potency was inconclusive: 4.61 µM [inhibitor, full curve, poor fit].

Q: For `Cc1ccc(C(=O)N2CC(=O)Nc3ccc(F)cc3C2c2ccc(F)cc2)cc1` (stereo unspecified), which Potency is on record?
A: The Potency was inconclusive: 22.4 µM [inhibitor, partial curve, poor fit].

Q: For `CCN(CC)CCCNC(=O)c1nn(-c2ccc(C)cc2)c(=O)c2c1c1ccccc1n2C`, which Potency is on record?
A: The Potency was inconclusive: 22.4 µM [inhibitor, single point].

Q: For `Cc1cc(O)c(NC(=O)c2cc([N+](=O)[O-])ccc2Cl)cc1C`, which Potency is on record?
A: Its Potency is inconclusive: 35.5 µM [inhibitor, single point].

Q: Which Potency does the source give for `COc1cccc(CNC(=O)CCC2CCCN(C(=O)CCC(F)(F)F)C2)c1` (stereo unspecified) here?
A: The Potency was inconclusive: 3.16 µM [inhibitor, partial curve, poor fit].

Q: For `Cc1cnc(C(=O)OCC(=O)N2CCN(S(=O)(=O)c3ccc(Cl)cc3)CC2)cn1`, which Potency is on record?
A: The Potency was “inactive”.

Q: For `O=C(NCc1ccccc1)/C(=C/c1ccc(OC(F)F)cc1)c1ccccc1`, which Potency is on record?
A: Its Potency is “inactive”.

Q: Which Potency does the source give for `CCC(=NCCc1c[nH]c2ccccc12)c1c(O)n(-c2ccc(C)cc2)c(=O)[nH]c1=O` here?
A: Its Potency is inconclusive: 22.4 µM [inhibitor, single point].

Q: Which Potency does the source give for `Cc1cccc(C=Nc2ccc3c(c2)oc2ccccc23)c1O` here?
A: The Potency was inconclusive: 0.112 µM [activator, full curve, poor fit].

Q: Which Potency does the source give for `COCc1[nH][nH]c(=O)c1C=Nc1ccc(F)cc1F` here?
A: The Potency was inconclusive: 3.16 µM [activator, partial curve, poor fit].

Q: With `Cc1cc(C)c2c(n1)sc1c(=O)n(-c3cc(Cl)ccc3C)nnc12` as the compound, how does the Potency read?
A: The Potency was “inactive”.

Q: With `CCOC(=O)C1CCN(CC(=O)Nc2c(C(=O)OC)[nH]c3cccc(Cl)c23)CC1` as the compound, how does the Potency read?
A: Its Potency is “inactive”.

Q: For `O=C(/C=C/c1ccccc1)NCCc1c[nH]c2ccccc12`, which Potency is on record?
A: The Potency was inconclusive: 31.6 µM [inhibitor, single point].

Q: Which Potency does the source give for `Cc1ccc(C2CCN(C(=O)Nc3ccc(F)cc3)C2)cc1` (stereo unspecified) here?
A: Its Potency is inconclusive: 11.2 µM [activator, partial curve, poor fit].

Q: For `CCN(CC)S(=O)(=O)c1ccc2oc(SCC(=O)Nc3cc(C)on3)nc2c1`, which Potency is on record?
A: The Potency was inconclusive: 7.08 µM [inhibitor, partial curve, poor fit].

Q: Which Potency does the source give for `CCCn1c(CCCNC(=O)c2ccccc2OC)nc2ccccc21` here?
A: Its Potency is “inactive”.

Q: Which Potency does the source give for `COc1ccc(NC(=O)c2cc3ccccc3o2)cc1` here?
A: Its Potency is inconclusive: 10 µM [inhibitor, partial curve, poor fit].

Q: Which Potency does the source give for `C=CCNC(=O)/C(C#N)=C/c1ccc(OS(=O)(=O)c2ccc(C)cc2)c(OC)c1` here?
A: Its Potency is inconclusive: 22.4 µM [inhibitor, single point].

Q: For `CCc1ccccc1NC(=O)c1cc(-c2cccs2)on1`, which Potency is on record?
A: The Potency was “inactive”.

Q: With `Fc1ccc(CCNC(=S)Nc2ccc(F)c(Cl)c2)cc1` as the compound, how does the Potency read?
A: The Potency was “inactive”.

Q: For `COc1ccc(Nc2ncnc3c2c(C)c(C)n3CCCN(C)C)cc1`, which Potency is on record?
A: Its Potency is inconclusive: 25.1 µM [inhibitor, single point].

Q: Which Potency does the source give for `CC(C)CCNC(=O)c1cc([N+](=O)[O-])ccc1N1CCOCC1` here?
A: Its Potency is inconclusive: 2.24 µM [activator, partial curve].

Q: For `Cc1ccc(O)c(C(=O)c2cnc3c(c2)COc2ccccc2-3)c1`, which Potency is on record?
A: Its Potency is “inactive”.

Q: For `CC(=O)Nc1ccc(Sc2ccccc2C(=O)O)c(C(=O)O)c1`, which Potency is on record?
A: The Potency was inconclusive: 5.62 µM [activator, single point].

Q: Which Potency does the source give for `c1ccc(-c2cnc(-c3ccccc3)nc2)cc1` here?
A: Its Potency is inconclusive: 23.1 µM [inhibitor, single point].

Q: Which Potency does the source give for `CC(C)CC(=O)Nc1ccc(-c2nnn(CC(=O)NCc3ccco3)n2)cc1` here?
A: Its Potency is inconclusive: 0.562 µM [activator, partial curve, poor fit].

Q: For `COc1ccc(NC(=S)Nc2nc(CC(=O)Nc3ccccc3OC)cs2)cc1`, which Potency is on record?
A: Its Potency is inconclusive: 29.1 µM [inhibitor, single point].

Q: Which Potency does the source give for `C=CSc1sc(Cl)c(N2CCOCC2)c1[N+](=O)[O-]` here?
A: Its Potency is inconclusive: 35.5 µM [inhibitor, single point].

Q: Which Potency does the source give for `O=C(CCSc1nnc2scc(-c3ccccc3)n12)NCc1ccc2c(c1)OCO2` here?
A: The Potency was inconclusive: 0.411 µM [inhibitor, full curve, poor fit].

Q: Which Potency does the source give for `CCN(CC)S(=O)(=O)c1ccc2oc(C(=O)NCc3ccccc3OC)c(C)c2c1` here?
A: Its Potency is inconclusive: 35.5 µM [inhibitor, single point].

Q: Which Potency does the source give for `Cc1nc(NC(=O)/C=C/c2ccccc2)sc1C(=O)Nc1cccc(Cl)c1` here?
A: The Potency was inconclusive: 2.82 µM [inhibitor, partial curve, poor fit].

Q: Which Potency does the source give for `O=C(NC(=S)Nc1ccccn1)c1cccc([N+](=O)[O-])c1` here?
A: The Potency was inconclusive: 11.2 µM [activator, partial curve, poor fit].
